# Measurements published in patent US20260115332A1, “Fibroblast Activation Protein Alpha-Cleavable Pro-Peptides and Methods of Use” (The Regents of the University of California, priority 2022, published 2026).
# At least one read-out could not be matched to a standard name with certainty.
# Molecular target: T1, recombinant human FAPα (Homo sapiens, UniProt Q12884)
# T1 sequence (Q12884 26-760 limits assumed): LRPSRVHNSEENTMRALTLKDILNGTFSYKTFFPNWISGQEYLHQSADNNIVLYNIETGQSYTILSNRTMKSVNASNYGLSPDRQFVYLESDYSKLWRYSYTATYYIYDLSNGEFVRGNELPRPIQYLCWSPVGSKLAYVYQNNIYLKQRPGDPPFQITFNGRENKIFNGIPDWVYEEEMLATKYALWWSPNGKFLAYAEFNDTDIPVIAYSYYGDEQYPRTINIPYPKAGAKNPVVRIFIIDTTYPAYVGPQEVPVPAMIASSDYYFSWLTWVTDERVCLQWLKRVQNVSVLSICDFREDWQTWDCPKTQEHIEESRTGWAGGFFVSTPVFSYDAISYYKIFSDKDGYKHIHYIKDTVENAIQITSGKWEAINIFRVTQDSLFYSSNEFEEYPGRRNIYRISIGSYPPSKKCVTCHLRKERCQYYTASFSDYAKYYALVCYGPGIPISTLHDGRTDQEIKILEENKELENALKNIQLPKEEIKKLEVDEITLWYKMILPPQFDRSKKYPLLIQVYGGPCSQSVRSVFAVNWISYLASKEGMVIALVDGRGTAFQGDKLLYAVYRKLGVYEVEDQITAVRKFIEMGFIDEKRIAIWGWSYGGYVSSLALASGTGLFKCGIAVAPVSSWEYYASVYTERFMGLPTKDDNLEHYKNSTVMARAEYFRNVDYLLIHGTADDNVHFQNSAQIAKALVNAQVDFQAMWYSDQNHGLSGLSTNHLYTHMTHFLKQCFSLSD
# Assay: Kinetics of FRET donor/acceptor 8 mer substrates under Michaelis-Menten conditions
# Format: biochemical
# Protocol: Three top hits, […] (SEQ ID NO:38), […] (SEQ ID NO:40), and […] (SEQ ID NO:42), were selected for further analysis. An 8 mer peptide bearing FRET donor-acceptor dyes on the N and C terminus was synthesized and evaluated as a substrate for recombinant human FAPα (RND Systems) under Michaelis-Menten conditions.
# A table summarizing the kinetic properties of three of the top P4-P4′ 8 mer peptides emerging from the MSP-MS assay is provided below, where the kinetic properties were determined using FRET donor/acceptor substrate adducts and human recombinant FAP alpha.
sequence,measurement,setting,value
HIGPTAAY (FRET fluorophore/quencher labels) [tested as 8 mer FRET peptide],kcat/Km,"8 mer FRET peptide, Michaelis-Menten conditions, approximate values","~120,000 M^−1 sec^−1"
same,kcat/KM,"FRET donor/acceptor substrate adducts, human recombinant FAP alpha",121679 s^−1M^−1
